Results from publication PMC3294245.
No constants are given. Whether binding was seen depends on the method and setting. In cells and extracts the contact can be indirect. Some entries that bind do so weakly or less than the wild type.

Amino acid sequences for entries named in this document (tags omitted). A change or cut given only in a name is not applied to a line headed by its entry. Chains listed by the source or under a name are the forms on record and can include a tag or linker.
UniProt P06493: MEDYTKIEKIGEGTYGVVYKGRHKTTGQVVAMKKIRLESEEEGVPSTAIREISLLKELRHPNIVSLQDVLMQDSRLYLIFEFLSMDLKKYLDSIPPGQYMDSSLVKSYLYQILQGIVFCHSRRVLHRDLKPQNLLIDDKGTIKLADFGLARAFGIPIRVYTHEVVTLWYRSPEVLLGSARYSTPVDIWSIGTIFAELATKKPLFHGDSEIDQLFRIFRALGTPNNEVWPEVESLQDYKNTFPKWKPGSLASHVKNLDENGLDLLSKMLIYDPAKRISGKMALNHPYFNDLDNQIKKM
UniProt Q5MJ70: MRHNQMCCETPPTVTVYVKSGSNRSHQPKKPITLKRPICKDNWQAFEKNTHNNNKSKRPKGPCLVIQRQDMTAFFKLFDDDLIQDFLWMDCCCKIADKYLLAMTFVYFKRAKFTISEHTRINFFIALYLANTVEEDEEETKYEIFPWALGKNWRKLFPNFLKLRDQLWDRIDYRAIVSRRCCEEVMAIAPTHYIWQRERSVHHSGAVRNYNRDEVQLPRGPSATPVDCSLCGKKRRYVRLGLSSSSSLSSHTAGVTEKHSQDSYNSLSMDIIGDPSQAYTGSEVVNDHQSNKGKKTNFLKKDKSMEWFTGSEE
Myc-Spy1-TST/D90A (Q5MJ70, form named): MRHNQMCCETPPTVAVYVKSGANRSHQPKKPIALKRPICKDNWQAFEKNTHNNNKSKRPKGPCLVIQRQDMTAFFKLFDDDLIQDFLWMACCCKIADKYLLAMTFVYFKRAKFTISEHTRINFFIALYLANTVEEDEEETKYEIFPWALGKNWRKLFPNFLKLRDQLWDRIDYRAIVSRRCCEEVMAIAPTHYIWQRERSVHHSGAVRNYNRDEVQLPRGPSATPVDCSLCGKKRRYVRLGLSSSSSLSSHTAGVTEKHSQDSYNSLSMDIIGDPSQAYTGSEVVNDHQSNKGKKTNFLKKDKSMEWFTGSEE
Myc-Spy1-TST (Q5MJ70, form named): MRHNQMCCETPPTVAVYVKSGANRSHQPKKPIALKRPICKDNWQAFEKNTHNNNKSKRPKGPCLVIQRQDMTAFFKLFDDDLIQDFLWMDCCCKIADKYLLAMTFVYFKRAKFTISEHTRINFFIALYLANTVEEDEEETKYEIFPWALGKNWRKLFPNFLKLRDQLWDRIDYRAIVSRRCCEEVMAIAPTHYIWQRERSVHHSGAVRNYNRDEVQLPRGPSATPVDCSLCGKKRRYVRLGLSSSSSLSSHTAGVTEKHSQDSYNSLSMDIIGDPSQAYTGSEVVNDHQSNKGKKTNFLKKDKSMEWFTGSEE

Molecular target: HA-Cdk1 (UniProt P06493)
Experiment: co-IP; 293 cells co-transfected with HA-Cdk1 and Myc-Spy1 constructs; lysed in 0.1% NP-40 lysis buffer; IP for HA (Figure 4A) or for Myc or HA (Figure 5A, cells treated with 70 ng nocodazole for 16 h; IgG IP as negative control), protein A-Sepharose, immunoblot for Myc and HA

| Substance | binding |
| --- | --- |
| Myc-Spy1-TST/D90A (from UniProt Q5MJ70 1-313) | no binding |
| Myc-Spy1-TST (from UniProt Q5MJ70 1-313) | binds |
